# From article PMC8699254
# Results are given in words; binding and its absence hold for the method and conditions named. In cells and extracts the contact can be indirect. These calls come from enrichment with a bait or labelling near it, and not all partners need be listed. For some assays here: No binding means not detected with the bait. For some assays here: Tags and fused reporters may be left off the sequences shown.
# T1: Strep-tagged PEAK3 (ST-PEAK3), wild type (human), Q6ZS72
# T1 chain: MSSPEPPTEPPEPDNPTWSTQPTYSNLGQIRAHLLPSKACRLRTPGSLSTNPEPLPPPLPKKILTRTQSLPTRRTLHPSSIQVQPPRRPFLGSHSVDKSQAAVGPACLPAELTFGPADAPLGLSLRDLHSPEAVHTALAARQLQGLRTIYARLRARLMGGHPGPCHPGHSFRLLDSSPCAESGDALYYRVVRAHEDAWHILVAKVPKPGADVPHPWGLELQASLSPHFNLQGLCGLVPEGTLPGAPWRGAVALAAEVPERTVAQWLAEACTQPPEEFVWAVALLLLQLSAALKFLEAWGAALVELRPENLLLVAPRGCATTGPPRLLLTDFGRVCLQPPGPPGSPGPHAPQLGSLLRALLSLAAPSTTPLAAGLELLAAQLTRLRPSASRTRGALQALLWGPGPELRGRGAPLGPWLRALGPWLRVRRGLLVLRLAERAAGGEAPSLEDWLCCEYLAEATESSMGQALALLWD
# Legend:
# [1] = biological target: Strep-tagged PEAK3 (ST-PEAK3), wild type (human) (UniProt Q6ZS72)
# [2] = biological target: T1, Strep-tagged PEAK3 (ST-PEAK3), wild …; conditions: remark: other sources report otherwise
Binder,binding [1],binding [2]
"Pragmin/PEAK2 (protein, UniProt Q86YV5 1-1406) MHQTLCLNPESLKMSACSDFVEHIWKPGSCKNCFCLRSDHQLVAGPPQPRAGSLPPPPRLPPRPENCRLEDEGVNSSPYSKPTIAVKPTMMSSEASDVWTEANLSAEVSQVIWRRAPGKLPLPKQEDAPVVYLGSFRGVQKPAGPSTSPDGNSRCPPAYTMVGLHNLEPRGERNIAFHPVSFPEEKAVHKEKPSFPYQDRPSTQESFRQKLAAFAGTTSGCHQGPGPLRESLPSEDDSDQRCSPSGDSEGGEYCSILDCCPGSPVAKAASQTAGSRGRHGGRDCSPTCWEQGKCSGPAEQEKRGPSFPKECCSQGPTAHPSCLGPKKLSLTSEAAISSDGLSCGSGSGSGSGASSPFVPHLESDYCSLMKEPAPEKQQDPGCPGVTPSRCLGLTGEPQPPAHPREATQPEPIYAESTKRKKAAPVPSKSQAKIEHAAAAQGQGQVCTGNAWAQKAASGWGRDSPDPTPQVSATITVMAAHPEEDHRTIYLSSPDSAVGVQWPRGPVSQNSEVGEEETSAGQGLSSRESHAHSASESKPKERPAIPPKLSKSSPVGSPVSPSAGGPPVSPLADLSDGSSGGSSIGPQPPSQGPADPAPSCRTNGVAISDPSRCPQPAASSASEQRRPRFQAGTWSRQCRIEEEEEVEQELLSHSWGRETKNGPTDHSNSTTWHRLHPTDGSSGQNSKVGTGMSKSASFAFEFPKDRSGIETFSPPPPPPKSRHLLKMNKSSSDLEKVSQGSAESLSPSFRGVHVSFTTGSTDSLASDSRTCSDGGPSSELAHSPTNSGKKLFAPVPFPSGSTEDVSPSGPQQPPPLPQKKIVSRAASSPDGFFWTQGSPKPGTASPKLNLSHSETNVHDESHFSYSLSPGNRHHPVFSSSDPLEKAFKGSGHWLPAAGLAGNRGGCGSPGLQCKGAPSASSSQLSVSSQASTGSTQLQLHGLLSNISSKEGTYAKLGGLYTQSLARLVAKCEDLFMGGQKKELHFNENNWSLFKLTCNKPCCDSGDAIYYCATCSEDPGSTYAVKICKAPEPKTVSYCSPSVPVHFNIQQDCGHFVASVPSSMLSSPDAPKDPVPALPTHPPAQEQDCVVVITREVPHQTASDFVRDSAASHQAEPEAYERRVCFLLLQLCNGLEHLKEHGIIHRDLCLENLLLVHCTLQAGPGPAPAPAPAPAPAAAAPPCSSAAPPAGGTLSPAAGPASPEGPREKQLPRLIISNFLKAKQKPGGTPNLQQKKSQARLAPEIVSASQYRKFDEFQTGILIYELLHQPNPFEVRAQLRERDYRQEDLPPLPALSLYSPGLQQLAHLLLEADPIKRIRIGEAKRVLQCLLWGPRRELVQQPGTSEEALCGTLHNWIDMKRALMMMKFAEKAVDRRRGVELEDWLCCQYLASAEPGALLQSLKLLQLL",binds,–
"CRKII, P46108-1 1-304 (protein) MAGNFDSEERSSWYWGRLSRQEAVALLQGQRHGVFLVRDSSTSPGDYVLSVSENSRVSHYIINSSGPRPPVPPSPAQPPPGVSPSRLRIGDQEFDSLPALLEFYKIHYLDTTTLIEPVSRSRQGSGVILRQEEAEYVRALFDFNGNDEEDLPFKKGDILRIRDKPEEQWWNAEDSEGKRGMIPVPYVEKYRPASASVSALIGGNQEGSHPQPLGGPEPGPYAQPSVNTPLPNLQNGPIYARVIQKRVPNAYDKTALALEVGELVKVTKINVSGQWEGECNGKRGHFPFTHVRLLDQQNPDEDFS",–,no binding
